Read-outs that look alike come from different tables or passages of the source. Results are given in words; binding and its absence hold for the method and conditions named. Binding seen in cells or lysates may run through a third protein. These calls come from enrichment with a bait or labelling near it, and not all partners need be listed. For some assays here: A no says only that the protein was not detected with the bait.
What was measured:
Assay in all cases: proximity labelling
BirA*-RAB18 [1] = target: BirA*-RAB18 (UniProt Q9NP72)
BirA*-RAB18 [2] = target: BirA*-RAB18 (UniProt Q9NP72); remark: listed apart in the source
BirA*-RAB18 [3] = target: BirA*-RAB18 (UniProt Q9NP72); remark: listed apart in the source
BirA*-RAB18, Q9NP72 [4] = conditions: remark: other sources report otherwise
BirA*-RAB18, Q9NP72 [5] = conditions: remark: other sources report otherwise; remark: listed apart in the source

Amino acid sequences for entries named in this document (tags omitted).
UniProt Q9NP72: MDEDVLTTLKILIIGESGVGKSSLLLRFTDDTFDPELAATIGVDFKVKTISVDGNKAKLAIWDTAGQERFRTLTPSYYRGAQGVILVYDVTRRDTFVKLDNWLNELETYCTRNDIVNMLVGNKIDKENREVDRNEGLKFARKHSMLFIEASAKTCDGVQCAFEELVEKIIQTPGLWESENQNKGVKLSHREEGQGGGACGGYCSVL

B1: RAB3GAP2 (protein, UniProt Q9H2M9 1-1393)
chain: MACSIVQFCYFQDLQAARDFLFPHLREEILSGALRRDPSKSTDWEDDGWGAWEENEPQEPEEEGNTCKTQKTSWLQDCVLSLSPTNDLMVIAREQKAVFLVPKWKYSDKGKEEMQFAVGWSGSLNVEEGECVTSALCIPLASQKRSSTGRPDWTCIVVGFTSGYVRFYTENGVLLLAQLLNEDPVLQLKCRTYEIPRHPGVTEQNEELSILYPAAIVTIDGFSLFQSLRACRNQVAKAAASGNENIQPPPLAYKKWGLQDIDTIIDHASVGIMTLSPFDQMKTASNIGGFNAAIKNSPPAMSQYITVGSNPFTGFFYALEGSTQPLLSHVALAVASKLTSALFNAASGWLGWKSKHEEEAVQKQKPKVEPATPLAVRFGLPDSRRHGESICLSPCNTLAAVTDDFGRVILLDVARGIAIRMWKGYRDAQIGWIQTVEDLHERVPEKADFSPFGNSQGPSRVAQFLVIYAPRRGILEVWSTQQGPRVGAFNVGKHCRLLYPGYKIMGLNNVTSQSWQPQTYQICLVDPVSGSVKTVNVPFHLALSDKKSERAKDMHLVKKLAALLKTKSPNLDLVETEIKELILDIKYPATKKQALESILASERLPFSCLRNITQTLMDTLKSQELESVDEGLLQFCANKLKLLQLYESVSQLNSLDFHLDTPFSDNDLALLLRLDEKELLKLQALLEKYKQENTRTNVRFSDDKDGVLPVKTFLEYLEYEKDVLNIKKISEEEYVALGSFFFWKCLHGESSTEDMCHTLESAGLSPQLLLSLLLSVWLSKEKDILDKPQSICCLHTMLSLLSKMKVAIDETWDSQSVSPWWQQMRTACIQSENNGAALLSAHVGHSVAAQISNNMTEKKFSQTVLGADSEALTDSWEALSLDTEYWKLLLKQLEDCLILQTLLHSKGNTQTSKVSSLQAEPLPRLSVKKLLEGGKGGIADSVAKWIFKQDFSPEVLKLANEERDAENPDEPKEGVNRSFLEVSEMEMDLGAIPDLLHLAYEQFPCSLELDVLHAHCCWEYVVQWNKDPEEARFFVRSIEHLKQIFNAHVQNGIALMMWNTFLVKRFSAATYLMDKVGKSPKDRLCRRDVGMSDTAMTSFLGSCLDLLQILMEADVSRDEIQVPVLDTEDAWLSVEGPISIVELALEQKHIHYPLVEHHSILCSILYAVMRFSLKTVKPLSLFDSKGKNAFFKDLTSIQLLPSGEMDPNFISVRQQFLLKVVSAAVQAQHSATKVKDPTEEATPTPFGKDQDWPALAVDLAHHLQVSEDVVRRHYVGELYNYGVDHLGEEAILQVHDKEVLASQLLVLTGQRLAHALLHTQTKEGMELLARLPPTLCTWLKAMDPQDLQNTEVPIATTAKLVNKVIELLPEKHGQYGLALHLIEAVEAISLPSL
BirA*-RAB18 [1]
  binding: binds
BirA*-RAB18 [2]
  binding: no binding (only in RAB3GAP1-null cells)
BirA*-RAB18 [3]
  binding: binds

B2: REEP4 (protein, UniProt Q9H6H4 1-257)
chain: MVSWMICRLVVLVFGMLCPAYASYKAVKTKNIREYVRWMMYWIVFALFMAAEIVTDIFISWFPFYYEIKMAFVLWLLSPYTKGASLLYRKFVHPSLSRHEKEIDAYIVQAKERSYETVLSFGKRGLNIAASAAVQAATKSQGALAGRLRSFSMQDLRSISDAPAPAYHDPLYLEDQVSHRRPPIGYRAGGLQDSDTEDECWSDTEAVPRAPARPREKPLIRSQSLRVVKRKPPVREGTSRSLKVRTRKKTVPSDVDS
BirA*-RAB18 [3]
  binding: binds

B3: C2CD2L/TMEM24 (protein, UniProt O14523 1-706)
chain: MDPGWGQRDVGWAALLILFAASLLTVFAWLLQYARGLWLARARGDRGPGPALAGEPAGSLRELGVWRSLLRLRATRAGAAEEPGVRGLLASLFAFKSFRENWQRAWVRALNEQACRNGSSIQIAFEEVPQLPPRASISHVTCVDQSEHTMVLRCQLSAEEVRFPVSVTQQSPAAVSMETYHVTLTLPPTQLEVNLEEIPGEGLLISWAFTDRPDLSLTVLPKLQARERGEEQVELSTIEELIKDAIVSTQPAMMVNLRACSAPGGLVPSEKPPMMPQAQPAIPRPNRLFLRQLRASHLGNELEGTEELCCVAELDNPMQQKWTKPARAGSEVEWTEDLALDLGPQSRELTLKVLRSSSCGDTELLGQATLPVGSPSRPLSRRQLCPLTPGPGKALGPAATMAVELHYEEGSPRNLGTPTSSTPRPSITPTKKIELDRTIMPDGTIVTTVTTVQSRPRIDGKLDSPSRSPSKVEVTEKTTTVLSESSGPSNTSHSSSRDSHLSNGLDPVAETAIRQLTEPSGRVAKKTPTKRSTLIISGVSKVPIAQDELALSLGYAASLEASVQDDAGTSGGPSSPPSDPPAMSPGPLDALSSPTSVQEADETTRSDISERPSVDDIESETGSTGALETRSLKDHKVSFLRSGTKLIFRRRPRQKEAGLSQSHDDLSNATATPSVRKKAGSFSRRLIKRFSFKSKPKANGNPSPQL
BirA*-RAB18 [3]
  binding: binds

B4: TRIM13 (protein, UniProt O60858 1-407)
chain: MELLEEDLTCPICCSLFDDPRVLPCSHNFCKKCLEGILEGSVRNSLWRPAPFKCPTCRKETSATGINSLQVNYSLKGIVEKYNKIKISPKMPVCKGHLGQPLNIFCLTDMQLICGICATRGEHTKHVFCSIEDAYAQERDAFESLFQSFETWRRGDALSRLDTLETSKRKSLQLLTKDSDKVKEFFEKLQHTLDQKKNEILSDFETMKLAVMQAYDPEINKLNTILQEQRMAFNIAEAFKDVSEPIVFLQQMQEFREKIKVIKETPLPPSNLPASPLMKNFDTSQWEDIKLVDVDKLSLPQDTGTFISKIPWSFYKLFLLILLLGLVIVFGPTMFLEWSLFDDLATWKGCLSNFSSYLTKTADFIEQSVFYWEQVTDGFFIFNERFKNFTLVVLNNVAEFVCKYKLL
BirA*-RAB18 [3]
  binding: binds

B5: SPG20, Q8N0X7 1-666 (protein)
chain: MEQEPQNGEPAEIKIIREAYKKAFLFVNKGLNTDELGQKEEAKNYYKQGIGHLLRGISISSKESEHTGPGWESARQMQQKMKETLQNVRTRLEILEKGLATSLQNDLQEVPKLYPEFPPKDMCEKLPEPQSFSSAPQHAEVNGNTSTPSAGAVAAPASLSLPSQSCPAEAPPAYTPQAAEGHYTVSYGTDSGEFSSVGEEFYRNHSQPPPLETLGLDADELILIPNGVQIFFVNPAGEVSAPSYPGYLRIVRFLDNSLDTVLNRPPGFLQVCDWLYPLVPDRSPVLKCTAGAYMFPDTMLQAAGCFVGVVLSSELPEDDRELFEDLLRQMSDLRLQANWNRAEEENEFQIPGRTRPSSDQLKEASGTDVKQLDQGNKDVRHKGKRGKRAKDTSSEEVNLSHIVPCEPVPEEKPKELPEWSEKVAHNILSGASWVSWGLVKGAEITGKAIQKGASKLRERIQPEEKPVEVSPAVTKGLYIAKQATGGAAKVSQFLVDGVCTVANCVGKELAPHVKKHGSKLVPESLKKDKDGKSPLDGAMVVAASSVQGFSTVWQGLECAAKCIVNNVSAETVQTVRYKYGYNAGEATHHAVDSAVNVGVTAYNINNIGIKAMVKKTATQTGHTLLEDYQIVDNSQRENQEGAANVNVRGEKDEQTKEVKEAKKKDK
BirA*-RAB18, Q9NP72 [4]
  binding: binds
BirA*-RAB18, Q9NP72 [5]
  binding: binds

B6: ZW10 (protein, UniProt O43264 1-779)
chain: MASFVTEVLAHSGRLEKEDLGTRISRLTRRVEEIKGEVCNMISKKYSEFLPSMQSAQGLITQVDKLSEDIDLLKSRIESEVRRDLHVSTGEFTDLKQQLERDSVVLSLLKQLQEFSTAIEEYNCALTEKKYVTGAQRLEEAQKCLKLLKSRKCFDLKILKSLSMELTIQKQNILYHLGEEWQKLIVWKFPPSKDTSSLESYLQTELHLYTEQSHKEEKTPMPPISSVLLAFSVLGELHSKLKSFGQMLLKYILRPLASCPSLHAVIESQPNIVIIRFESIMTNLEYPSPSEVFTKIRLVLEVLQKQLLDLPLDTDLENEKTSTVPLAEMLGDMIWEDLSECLIKNCLVYSIPTNSSKLQQYEEIIQSTEEFENALKEMRFLKGDTTDLLKYARNINSHFANKKCQDVIVAARNLMTSEIHNTVKIIPDSKINVPELPTPDEDNKLEVQKVSNTQYHEVMNLEPENTLDQHSFSLPTCRISESVKKLMELAYQTLLEATTSSDQCAVQLFYSVRNIFHLFHDVVPTYHKENLQKLPQLAAIHHNNCMYIAHHLLTLGHQFRLRLAPILCDGTATFVDLVPGFRRLGTECFLAQMRAQKGELLERLSSARNFSNMDDEENYSAASKAVRQVLHQLKRLGIVWQDVLPVNIYCKAMGTLLNTAISEVIGKITALEDISTEDGDRLYSLCKTVMDEGPQVFAPLSEESKNKKYQEEVPVYVPKWMPFKELMMMLQASLQEIGDRWADGKGPLAAAFSSSEVKALIRALFQNTERRAAALAKIK
BirA*-RAB18 [1]
  binding: binds
BirA*-RAB18 [2]
  binding: no binding (only in RAB3GAP1-null cells)
BirA*-RAB18 [3]
  binding: binds

B7: BNIP1 (protein, UniProt Q12981 1-228)
chain: MAAPQDVHVRICNQEIVKFDLEVKALIQDIRDCSGPLSALTELNTKVKEKFQQLRHRIQDLEQLAKEQDKESEKQLLLQEVENHKKQMLSNQASWRKANLTCKIAIDNLEKAELLQGGDLLRQRKTTKESLAQTSSTITESLMGISRMMAQQVQQSEEAMQSLVTSSRTILDANEEFKSMSGTIQLGRKLITKYNRRELTDKLLIFLALALFLATVLYIVKKRLFPFL
BirA*-RAB18 [3]
  binding: binds

B8: SEC22A (endogenous) (protein, UniProt Q96IW7 1-307)
chain: MSMILSASVIRVRDGLPLSASTDYEQSTGMQECRKYFKMLSRKLAQLPDRCTLKTGHYNINFISSLGVSYMMLCTENYPNVLAFSFLDELQKEFITTYNMMKTNTAVRPYCFIEFDNFIQRTKQRYNNPRSLSTKINLSDMQTEIKLRPPYQISMCELGSANGVTSAFSVDCKGAGKISSAHQRLEPATLSGIVGFILSLLCGALNLIRGFHAIESLLQSDGDDFNYIIAFFLGTAACLYQCYLLVYYTGWRNVKSFLTFGLICLCNMYLYELRNLWQLFFHVTVGAFVTLQIWLRQAQGKAPDYDV
BirA*-RAB18 [3]
  binding: binds

B9: TMCO4 (endogenous) (protein, UniProt Q5TGY1 1-634)
chain: MAMWNRPCQRLPQQPLVAEPTAEGEPHLPTGRELTEANRFAYAALCGISLSQLFPEPEHSSFCTEFMAGLVQWLELSEAVLPTMTAFASGLGGEGADVFVQILLKDPILKDDPTVITQDLLSFSLKDGHYDARARVLVCHMTSLLQVPLEELDVLEEMFLESLKEIKEEESEMAEASRKKKENRRKWKRYLLIGLATVGGGTVIGVTGGLAAPLVAAGAATIIGSAGAAALGSAAGIAIMTSLFGAAGAGLTGYKMKKRVGAIEEFTFLPLTEGRQLHITIAVTGWLASGKYRTFSAPWAALAHSREQYCLAWEAKYLMELGNALETILSGLANMVAQEALKYTVLSGIVAALTWPASLLSVANVIDNPWGVCLHRSAEVGKHLAHILLSRQQGRRPVTLIGFSLGARVIYFCLQEMAQEKDCQGIIEDVILLGAPVEGEAKHWEPFRKVVSGRIINGYCRGDWLLSFVYRTSSVQLRVAGLQPVLLQDRRVENVDLTSVVSGHLDYAKQMDAILKAVGIRTKPGWDEKGLLLAPGCLPSEEPRQAAAAASSGETPHQVGQTQGPISGDTSKLAMSTDPSQAQVPVGLDQSEGASLPAAASPERPPICSHGMDPNPLGCPDCACKTQGPSTGLD
BirA*-RAB18 [3]
  binding: binds
